From PMC4477661
Results are given in words; binding and its absence hold for the method and conditions named. Binding seen in cells or lysates may run through a third protein. Binding can be weak; no strength is given.

Legend:
[1] = biological target: T1, proliferating cell nuclear antigen (PCNA) of Leishmania donovani (Leishmania donovani (endogenous in Ld1S promastigotes)) (UniProt B5TV91); assay: co-IP; anti-PCNA antibodies immobilised on Protein A sepharose/CL6B sepharose; whole cell lysates of promastigotes expressing HAT3-FLAG treated with DNase I, incubated overnight at 4°C; washed with 1x PBS-0.2% Triton X-100; western blot with anti-FLAG; logarithmically growing cells and cells synchronised with hydroxyurea (G1/S, S, G2/M)
T1 sequence: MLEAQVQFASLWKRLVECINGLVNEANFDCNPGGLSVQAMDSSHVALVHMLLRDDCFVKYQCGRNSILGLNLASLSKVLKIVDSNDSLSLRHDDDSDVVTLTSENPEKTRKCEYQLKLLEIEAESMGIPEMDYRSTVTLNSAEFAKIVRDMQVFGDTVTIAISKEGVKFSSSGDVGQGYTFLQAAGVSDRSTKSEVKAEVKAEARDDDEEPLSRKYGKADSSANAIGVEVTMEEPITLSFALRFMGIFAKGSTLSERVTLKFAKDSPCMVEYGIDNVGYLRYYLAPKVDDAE

[2] = biological target: Leishmania donovani histone acetyltransferase HAT3 with FLAG tag (HAT3-FLAG) (Leishmania donovani); assay: co-IP; HAT3-FLAG precipitated on FLAG-M2 agarose beads from whole cell lysates of promastigotes; western blot with anti-PCNA; logarithmically growing cells, also 8 h after UV exposure, with or without pre-incubation with 20 uM MG132

Molecule: Leishmania donovani histone acetyltransferase HAT3 with FLAG tag (HAT3-FLAG) (enzyme)
- binding [1]: binds

B1: proliferating cell nuclear antigen (PCNA) of Leishmania donovani (protein, UniProt B5TV91 1-292)
chain: MLEAQVQFASLWKRLVECINGLVNEANFDCNPGGLSVQAMDSSHVALVHMLLRDDCFVKYQCGRNSILGLNLASLSKVLKIVDSNDSLSLRHDDDSDVVTLTSENPEKTRKCEYQLKLLEIEAESMGIPEMDYRSTVTLNSAEFAKIVRDMQVFGDTVTIAISKEGVKFSSSGDVGQGYTFLQAAGVSDRSTKSEVKAEVKAEARDDDEEPLSRKYGKADSSANAIGVEVTMEEPITLSFALRFMGIFAKGSTLSERVTLKFAKDSPCMVEYGIDNVGYLRYYLAPKVDDAE
- binding [2]: binds
